# Experimental data taken from article PMC5655499, “Peptide array-based screening reveals a large number of proteins interacting with the ankyrin-repeat domain of the zDHHC17 S-acyltransferase” (The Journal of Biological Chemistry, 2017).
# Protein sequences, listed by entry. Tags and fused reporters are not part of them. Residues count along the entry.
# UniProt Q8IUH5, residues 51-304: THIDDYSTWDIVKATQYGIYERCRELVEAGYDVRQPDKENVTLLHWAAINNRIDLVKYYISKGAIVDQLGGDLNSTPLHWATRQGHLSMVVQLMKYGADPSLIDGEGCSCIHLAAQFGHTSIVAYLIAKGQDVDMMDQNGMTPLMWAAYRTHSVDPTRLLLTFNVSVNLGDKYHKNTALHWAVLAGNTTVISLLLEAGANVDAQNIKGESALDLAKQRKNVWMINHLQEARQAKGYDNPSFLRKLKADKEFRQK
# Results are given in words; binding and its absence hold for the method and conditions named. Binding can be weak; no strength is given. For some assays here: Binding seen in cells or lysates may run through a third protein.
# Legend:
# [1] = molecular target: T1, murine zDHHC13-Cub-PLV bait (mouse) (UniProt Q9CWU2); test: two-hybrid; mating-based split-ubiquitin system (SUS) in yeast; zDHHC-Cub-PLV bait, NubG-2HA-tagged prey; growth on SD media lacking adenine and histidine
# T1 sequence: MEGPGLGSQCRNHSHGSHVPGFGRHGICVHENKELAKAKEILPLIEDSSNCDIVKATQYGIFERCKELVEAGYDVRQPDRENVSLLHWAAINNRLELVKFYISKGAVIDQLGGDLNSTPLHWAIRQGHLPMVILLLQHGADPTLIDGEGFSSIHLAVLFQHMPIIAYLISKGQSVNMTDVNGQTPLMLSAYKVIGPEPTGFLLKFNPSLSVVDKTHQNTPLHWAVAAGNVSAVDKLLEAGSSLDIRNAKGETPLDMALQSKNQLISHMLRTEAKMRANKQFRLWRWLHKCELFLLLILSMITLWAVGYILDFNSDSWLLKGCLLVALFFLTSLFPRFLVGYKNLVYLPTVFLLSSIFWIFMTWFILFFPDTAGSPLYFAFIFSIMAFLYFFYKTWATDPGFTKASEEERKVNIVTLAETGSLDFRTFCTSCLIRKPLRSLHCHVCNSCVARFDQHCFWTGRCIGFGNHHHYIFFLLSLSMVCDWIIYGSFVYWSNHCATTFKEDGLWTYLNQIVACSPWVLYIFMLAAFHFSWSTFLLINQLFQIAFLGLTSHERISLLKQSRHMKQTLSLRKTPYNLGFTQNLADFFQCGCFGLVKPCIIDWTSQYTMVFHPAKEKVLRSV
# [2] = molecular target: ARzD17-His (51–304 amino acids of human zDHHC17) (human) (UniProt Q8IUH5); test: pull-down; HEK293T lysates with EGFP-tagged proteins incubated with 50 μg ARzD17-His (51–304) and Ni-NTA agarose, 2 h at 4 °C; washes 20 mM Tris-HCl pH 8, 300 mM NaCl, 1% Triton, 40 mM imidazole; blot with GFP antibody; only the target purified
Substance,binding [1],binding [2]
NubG-2HA-SPRED2 C-terminal truncation lacking the SPR domain (mouse) (domain or fragment),binds,
EGFP-tagged EVL isoform 1 (from UniProt Q9UI08-2),,binds
